# PubChem BioAssay AID652243 | Drosophila RNAi Screening Center, 2013
# Test: 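Fly genes required for human androgen receptor driven transcription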 (primary screen)
# System: Drosophila S2R+ cells
# Reagents: long dsRNA against Drosophila genes
# Timing: 72 h (48 h, then 24 h hormone)
# Conditions: synthetic androgen R1881 at 10 nM for 24 h
# Measurement: 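Per-well raw luminescence of the androgen-driven firefly reporter and of the Renilla control, two replicates each, without normalisation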
# Reading the numbers: firefly reporter light: higher = more light from androgen-responsive reporter; Renilla control light: higher = more constitutive control signal (cell number, transfection)
# Call rule: 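Across duplicate plates, a knock-down whose log firefly/Renilla ratio shifted a set fold down or up from the GFP/LacZ control mean was a hit; the downward cut appears as both 1.5 and 3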
# Calls: active = hit: reporter lowered or raised; inactive = no hit
# In all, the deposit lists about 24,000 reagents; below is a random part of those that have a named target and a result. In the full data, 246 (1%) are marked active. 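Plates not normalised; calls are printed but the firefly/Renilla ratio behind them is not deposited; fold cut for lowering reported inconsistently.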 Raw values vary from plate to plate and are shown uncorrected. A plus sign joins genes that one reagent is predicted to hit. Not stated in the record: the amount of reagent.
gene,dsRNA,"firefly reporter light, replicate 1","firefly reporter light, replicate 2","Renilla control light, replicate 1","Renilla control light, replicate 2",activity call
CG10445,DRSC14247,1.19e5,97159,2.70e6,2.25e6,inactive
Prp8 (pre-mRNA processing factor 8),DRSC07293,6.81e5,7.40e5,1.60e6,1.56e6,inactive
CG4586,DRSC18373,1.45e5,1.06e5,1.15e6,5.13e5,inactive
spict (spichthyin),DRSC02157,1.39e6,1.32e6,1.55e6,1.41e6,inactive
spict (spichthyin),DRSC28072,5.17e5,3.55e5,2.01e6,1.66e6,inactive
spict (spichthyin),DRSC39020,9.75e5,1.10e6,1.99e6,2.02e6,inactive
Ugt36A1 (UDP-glycosyltransferase family 36 member A1),DRSC00748,1.19e5,92159,1.04e6,8.90e5,inactive
Ugt36A1 (UDP-glycosyltransferase family 36 member A1),DRSC29161,4.77e5,4.33e5,1.40e6,1.26e6,inactive
CG9121,DRSC03142,67954,89419,1.13e6,7.83e5,inactive
GstD9 (Glutathione S transferase D9),DRSC14185,1.14e5,93189,2.45e6,1.85e6,inactive
GstD9 (Glutathione S transferase D9),DRSC25307,5.06e5,4.20e5,6.46e5,5.70e5,inactive
kat80 (katanin 80),DRSC20344,4.26e5,4.25e5,2.56e6,3.06e6,inactive
kat80 (katanin 80),DRSC20345,4.06e5,3.42e5,2.81e6,2.10e6,inactive
CG5274,DRSC11774,44485,43097,2.98e5,3.72e5,inactive
Arp53D (Actin-related protein 53D),DRSC05923,48129,86082,1.28e6,1.28e6,inactive
Cyp9h1 (Cytochrome P450 9h1),DRSC07391,2.53e5,2.44e5,1.39e6,1.33e6,inactive
Cyp9h1 (Cytochrome P450 9h1),DRSC26493,2.25e5,2.96e5,3.62e5,3.87e5,inactive
Tsp42Er (Tetraspanin 42Er),DRSC06183,3.90e5,3.11e5,2.52e6,1.67e6,inactive
CG4612,DRSC04478,6.51e5,4.63e5,1.22e6,1.03e6,inactive
CG18132,DRSC00518,1.47e5,1.27e5,9.07e5,6.15e5,inactive
Ufd1 (Ubiquitin fusion-degradation 1-like),DRSC10607,9.11e5,7.76e5,2.08e6,2.64e6,inactive
l(2)efl (lethal (2) essential for life),DRSC04698,6.05e5,5.55e5,1.13e6,1.07e6,inactive
Toll-4,DRSC03458,2.23e5,2.14e5,1.16e6,1.17e6,inactive
CG31106,DRSC14655,1.21e5,1.59e5,2.13e6,1.70e6,inactive

Next part, starting with the last 5 of the part before.
gene,dsRNA,"firefly reporter light, replicate 1","firefly reporter light, replicate 2","Renilla control light, replicate 1","Renilla control light, replicate 2",activity call
CG18132,DRSC00518,1.47e5,1.27e5,9.07e5,6.15e5,inactive
Ufd1 (Ubiquitin fusion-degradation 1-like),DRSC10607,9.11e5,7.76e5,2.08e6,2.64e6,inactive
l(2)efl (lethal (2) essential for life),DRSC04698,6.05e5,5.55e5,1.13e6,1.07e6,inactive
Toll-4,DRSC03458,2.23e5,2.14e5,1.16e6,1.17e6,inactive
CG31106,DRSC14655,1.21e5,1.59e5,2.13e6,1.70e6,inactive
CG1640,DRSC19750,95487,1.26e5,7.62e5,8.22e5,inactive
CG3092,DRSC04336,7.87e5,6.11e5,1.00e6,1.09e6,inactive
CG3092,DRSC30054,9.13e5,1.03e6,1.39e6,8.74e5,inactive
CG31601,DRSC03678,1.79e5,1.81e5,5.39e5,5.65e5,inactive
CG12519,DRSC29810,5.12e5,4.55e5,1.67e6,1.86e6,inactive
Rh4 + sina,DRSC11396,36636,43480,3.58e5,3.28e5,inactive
Liprin-alpha,DRSC02132,1.23e6,1.11e6,2.70e6,2.23e6,inactive
Liprin-alpha,DRSC26919,6.49e5,5.91e5,1.13e6,8.83e5,inactive
Pde11 (Phosphodiesterase 11),DRSC02028,4.52e5,6.00e5,2.56e6,3.51e6,inactive
Pde11 (Phosphodiesterase 11),DRSC02460,41347,51187,1.42e6,1.40e6,active
Pde11 (Phosphodiesterase 11),DRSC26665,2.74e5,2.05e5,5.10e5,3.65e5,inactive
CG6961 + CG18259,DRSC19799,2.17e5,1.54e5,9.42e5,5.12e5,inactive
CG6961 + CG18259,DRSC20019,86045,91233,7.47e5,7.98e5,inactive
CG6961 + CG18259,DRSC26849,3.32e5,3.68e5,3.91e5,6.60e5,inactive
tup (tailup),DRSC03627,8.15e5,5.80e5,1.94e6,1.89e6,inactive
tup (tailup),DRSC23978,2.83e5,2.37e5,6.77e5,4.62e5,inactive
Scr (Sex combs reduced),DRSC23141,4.84e5,4.89e5,54542,80649,inactive
Scr (Sex combs reduced),DRSC29201,5.10e5,4.66e5,1.24e6,1.02e6,inactive
spag4 (sperm-associated antigen 4),DRSC02973,1.78e5,1.83e5,1.34e6,1.71e6,inactive
Coq9 (Coenzyme Q9),DRSC22913,4.52e5,1.12e6,1.47e6,2.53e6,inactive
CG13801,DRSC08335,72865,1.57e5,1.02e6,1.19e6,inactive
dl (dorsal),DRSC03521,2.22e5,1.85e5,2.11e6,2.33e6,inactive
dl (dorsal),DRSC29023,3.81e5,3.72e5,1.04e6,9.47e5,inactive
Jhbp3 (Juvenile hormone binding protein 3),DRSC12247,75692,65654,1.64e6,1.56e6,inactive
l(2)k01209 (lethal (2) k01209),DRSC06889,52834,93742,1.03e6,1.03e6,inactive
l(2)k01209 (lethal (2) k01209),DRSC29673,8.31e5,1.06e6,4.88e5,4.88e5,active
l(2)k01209 (lethal (2) k01209),DRSC37059,,,,,inactive
DptA (Diptericin A),DRSC07404,1.65e5,1.63e5,2.55e6,2.21e6,inactive
Diap2 (Death-associated inhibitor of apoptosis 2),DRSC07444,1.45e6,1.52e6,2.16e6,2.21e6,inactive
Diap2 (Death-associated inhibitor of apoptosis 2),DRSC26613,2.09e5,3.04e5,4.82e5,4.57e5,inactive
CG13538,DRSC04180,3.75e5,3.75e5,2.24e6,1.49e6,inactive
Cpr65Aw (Cuticular protein 65Aw),DRSC08794,4.41e5,3.34e5,1.04e5,62673,inactive
CG40467 (retired record),DRSC37733,9.11e5,7.22e5,1.63e6,1.80e6,inactive
Mpp6 (M-phase phosphoprotein 6),DRSC03169,1.15e5,1.49e5,1.34e6,1.72e6,inactive
Mpp6 (M-phase phosphoprotein 6),DRSC29734,4.83e5,3.77e5,1.24e6,1.43e6,inactive
